These are yes or no findings as the source states them, for the method shown. Some entries that bind do so weakly or less than the wild type. Sequences can lack the tags named with a protein.
Tests used:
Test in all cases: two-hybrid; CP190 variants fused to the GAL4 DNA-binding domain (pGBT9), C2H2 proteins fused to the GAL4 activating domain (pGAD424); yeast PJ69-4a; growth on medium without tryptophan, leucine, histidine and adenine, 30 °C, compared after 2-3 days; repeated three times
[1] = biological target: T1, CP190 1–245 aa fused to the GAL4 DNA-binding domain (Drosophila melanogaster) (UniProt Q24478)
T1 sequence: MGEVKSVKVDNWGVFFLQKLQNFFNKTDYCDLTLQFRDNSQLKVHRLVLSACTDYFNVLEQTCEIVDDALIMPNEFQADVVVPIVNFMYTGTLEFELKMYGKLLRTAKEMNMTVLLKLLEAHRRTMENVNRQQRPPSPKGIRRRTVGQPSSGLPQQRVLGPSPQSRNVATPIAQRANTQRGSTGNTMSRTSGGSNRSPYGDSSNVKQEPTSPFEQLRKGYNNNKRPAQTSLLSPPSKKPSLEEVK

[2] = biological target: T2, CP190 309–390 aa fused to the GAL4 DNA-binding domain (Drosophila melanogaster) (UniProt Q24478)
T2 sequence: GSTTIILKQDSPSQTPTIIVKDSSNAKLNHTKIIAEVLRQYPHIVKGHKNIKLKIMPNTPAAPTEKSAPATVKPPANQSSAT

[3] = biological target: T3, CP190 309–470 aa fused to the GAL4 DNA-binding domain (Drosophila melanogaster) (UniProt Q24478)
T3 sequence: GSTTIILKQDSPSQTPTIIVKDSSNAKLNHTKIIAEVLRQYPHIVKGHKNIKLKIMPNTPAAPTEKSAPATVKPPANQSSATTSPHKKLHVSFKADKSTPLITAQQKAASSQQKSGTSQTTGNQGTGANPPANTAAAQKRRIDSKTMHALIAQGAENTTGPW

Measured: binding

B1: ZIPIC fused to the GAL4 activating domain (protein, UniProt Q9VAB8 1-457)
chain: MNCCICQFSVRVPKDIHTDTVGHPPVLISELVLQCTRGTNYVLTEESSTICKKCCEKLARYHKSIQIARKLRGEILELIHSPYMSKDHKQTSYKEDDLDRETTISKFDGNIEEAQQQDEEEQELESVGTTVTLVGPAGIVEEVAEEEHTFIIKQSEEEDEFHSVDLELDIDNEIIINEEEAHEVEEVAHEIEEVAHEIEEEDLLPHDKQEAQEEDFFKEDTMSDFDEHLDGAIEYIISDGEDQEQDNESSGEYTVNIQCPSCPEKFSSRRAYNVHTKREHFPGYVCDQCGKTLQSYSGFIGHLQNHEPVKQFACPVCPERFSRKFRLKHHMAWHSGETPYQCDVCSKRFVHKVALYKHKMIHDSETKRLECQVCGFKTRTKAHLERHMRSHTGDKPFACPVCNKRFSQMYNMKAHLREHESPGTNRHRRFHCSKCTHTFINEQNYDAHVQRDDCTPV
binds: [1] | [2] | [3]
